Data set [1] addresses T1, Rev-erb alpha (NR1D1) (Homo sapiens) (UniProt P20393).
T1 sequence (looked up, limits assumed): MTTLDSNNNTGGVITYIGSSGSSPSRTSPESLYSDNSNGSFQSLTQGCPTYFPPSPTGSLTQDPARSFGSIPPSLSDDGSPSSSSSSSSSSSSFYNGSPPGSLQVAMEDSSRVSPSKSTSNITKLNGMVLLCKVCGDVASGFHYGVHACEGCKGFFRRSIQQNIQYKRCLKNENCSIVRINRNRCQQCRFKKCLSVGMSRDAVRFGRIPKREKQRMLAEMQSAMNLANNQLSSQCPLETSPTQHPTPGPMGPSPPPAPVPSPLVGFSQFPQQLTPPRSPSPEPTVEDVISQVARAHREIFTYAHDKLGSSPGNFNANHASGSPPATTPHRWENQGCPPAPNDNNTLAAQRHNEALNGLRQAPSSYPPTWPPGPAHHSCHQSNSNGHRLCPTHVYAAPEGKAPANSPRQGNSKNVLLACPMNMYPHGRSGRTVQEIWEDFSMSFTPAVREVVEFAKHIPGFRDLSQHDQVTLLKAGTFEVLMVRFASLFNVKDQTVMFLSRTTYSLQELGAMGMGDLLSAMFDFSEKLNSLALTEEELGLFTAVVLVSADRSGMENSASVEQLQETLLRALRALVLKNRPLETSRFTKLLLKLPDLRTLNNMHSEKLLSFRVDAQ
As to the kind of experiment: activity in cells. The settings on record: protein in cells, protein details: pSG5-hRev-erbα expression vector, only the site is given.

Data set [2] concerns the target T1, Rev-erb alpha (NR1D1) (Homo sapiens). As to the kind of experiment: EMSA. The settings on record: monomer-type complex, weaker than Rev-DR2; protein translated in vitro; protein details: pSG5-hRev-erbα, TnT T7 rabbit reticulocyte lysate; label: 32P.

For some of these results: No signal at the amounts used counts as a negative. Protein sequences can lack the tags named with them. For some of these results: The comparison behind a weaker result is the experiment's own reference, which may not be listed here.

With “GATCCGATAAAACACACATGAA / GATCTTCATGTGTGTTTTATCG [(-33/-16)TaTaKO, 3 copies upstream of Tk promoter]”, the “activity on this sequence” value in data set [1] (mutation suppresses sensitivity to hRev-erbα) is given as “not active”. Turning to “GATCCGATAAAACAGGTCAGAA / GATCTTCTGACCTGTTTTATCG [(-33/-16)WT, 3 copies upstream of Tk promoter]”, the “activity on this sequence” value in data set [1] (reporter repressed by hRev-erbα) was “active”. “GATCCGGAAAAGTGTGTCACTGGGGCACGA / GATCTCGTGCCCCAGTGACACACTTTTCCG [Rev-DR2]”: in data set [1] (3 copies upstream of Tk promoter, increased sensitivity to hRev-erbα), the “activity on this sequence” value is “active”.

For “GATCTGATATAAAACAGGTCAGAACCCTC / GATCGAGGGTTCTGACCTGTTTTATATCA [HCIII-TaTaWT (-34/-10)]”, the binding result in data set [2] is “binds more weakly”.

For the origin of these results see patent publication US7691628, “Use of Rev-erb family of receptors in screening” (Merck Patent GmbH).
